Some of these results come from one statement about several compounds together.
Tests used:
[1] = tested on: p68 RNA helicase threonine phosphorylation; experiment: Threonine phosphorylation of p68 RNA helicase in cancer cells after treatment (immunoprecipitation, Western Blot with 14B3); format: cell-based, human; conditions: very early stage of treatment; data not shown
Description: The presence of phosphorylated p68 RNA helicase in cultured cells or tissue samples was examined using immunoprecipitation followed by Western Blots. Immunoblotting also was also performed with a monoclonal antibody against p68 RNA helicase to show the equal amounts or levels of p68 (phosphorylated and unphosphorylated) loaded in the western blotting. Such Western Blots include the use of antibodies to phosphorylated p68 RNA helicase and sodium dodecyl sulphate polyacrylamide gel electrophoresis (SDS-PAGE). Immunoblotting also was performed with a monoclonal antibody against p68 RNA helicase to show the presence of a positive control protein in tumor and normal samples and to indicate that there was no evidence of protein degradation in any of the tissue samples.
A polyacrylamide gel system was employed for separation of proteins. The cell nuclear extracts (80 μl) were diluted to 200 μl with RIPA buffer (160 mM NaCl, 20 mM Tris-HCl, pH 7.5, 1 mM EDTA, 1 mM EGTA, 1 mM DTT, 0.1% Triton X-100, 1% sodium deoxycholate, 0.1% SDS, 1 mM sodium vanadate, and 1 mM PMSF). The antibody PAbp68 then was added to the mixture. The solution subsequently was incubated at 4° C. for 4 hours. Protein A agarose bead slurry (40 μl) then was added and the mixture underwent rotation. […] The precipitated proteins were analyzed by SDS-PAGE followed by Western Blot. […]

[2] = tested on: p68 RNA helicase tyrosine phosphorylation; experiment: Tyrosyl phosphorylation of p68 RNA helicase in cancer cells after treatment (immunoprecipitation with PAbp68, Western Blot with p-tyr-100); format: cell-based, human; conditions: very early stage of treatment; data not shown

TNF-α
time at which phosphorylation at threonine residue(s) occurred [1]: ≤ 600 s | time at which dephosphorylation at tyrosine residue(s) occurred [2]: ≤ 600 s

— patent US7741066B2, “Phosphorylated p68 RNA helicase as a marker for cancer and cancer metastasis” (priority 2005, dated 2010)
